Test results published in the M2OR odorant receptor database.
Only a part is listed here, and it is no random draw. The calls were merged from several studies; some rest on single wells. This is one part of the list.

Experiments:
Settings in all cases: stereoisomer not certain
O5AU1 = tested on: T1, O5AU1
T1 sequence (whole entry): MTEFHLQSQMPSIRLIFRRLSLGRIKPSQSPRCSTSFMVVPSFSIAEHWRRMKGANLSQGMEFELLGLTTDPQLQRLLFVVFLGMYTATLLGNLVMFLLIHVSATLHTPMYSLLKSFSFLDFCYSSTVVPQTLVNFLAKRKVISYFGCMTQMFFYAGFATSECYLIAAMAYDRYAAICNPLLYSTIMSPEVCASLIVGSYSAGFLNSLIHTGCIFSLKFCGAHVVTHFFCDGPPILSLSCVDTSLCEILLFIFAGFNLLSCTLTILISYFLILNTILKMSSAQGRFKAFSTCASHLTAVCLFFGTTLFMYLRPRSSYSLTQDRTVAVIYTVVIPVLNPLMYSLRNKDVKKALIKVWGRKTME
Outline: (§1)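 Transient luciferase assays in mammalian cell lines were common, though methods varied by source. The values come from published papers and their supplementary material, with extra details from the original authors when needed. Responsive refers to a measured signal the original authors judged statistically different from baseline, and non-responsive (inactive) to the remainder.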

O5H14 = tested on: T2, O5H14
T2 sequence (whole entry): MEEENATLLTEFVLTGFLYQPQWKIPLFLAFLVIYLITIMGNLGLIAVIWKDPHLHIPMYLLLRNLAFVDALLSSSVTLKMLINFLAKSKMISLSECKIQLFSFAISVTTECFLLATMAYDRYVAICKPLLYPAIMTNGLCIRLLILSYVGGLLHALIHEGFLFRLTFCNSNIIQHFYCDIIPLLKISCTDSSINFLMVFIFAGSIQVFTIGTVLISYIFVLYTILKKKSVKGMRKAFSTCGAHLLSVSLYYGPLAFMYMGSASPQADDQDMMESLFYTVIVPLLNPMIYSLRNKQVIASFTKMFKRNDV
Outline: as §1

O6C68 = tested on: T3, O6C68
T3 sequence (whole entry): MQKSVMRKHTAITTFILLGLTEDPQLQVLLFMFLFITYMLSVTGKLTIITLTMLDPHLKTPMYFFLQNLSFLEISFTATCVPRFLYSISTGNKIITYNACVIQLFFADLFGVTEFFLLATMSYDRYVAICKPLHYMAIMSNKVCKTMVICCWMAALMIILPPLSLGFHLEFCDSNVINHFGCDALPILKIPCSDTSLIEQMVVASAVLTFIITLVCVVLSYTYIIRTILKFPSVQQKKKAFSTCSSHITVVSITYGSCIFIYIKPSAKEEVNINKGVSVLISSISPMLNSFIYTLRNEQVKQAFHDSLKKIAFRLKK
Outline: as §1

O6C70 = tested on: T4, O6C70
T4 sequence (whole entry): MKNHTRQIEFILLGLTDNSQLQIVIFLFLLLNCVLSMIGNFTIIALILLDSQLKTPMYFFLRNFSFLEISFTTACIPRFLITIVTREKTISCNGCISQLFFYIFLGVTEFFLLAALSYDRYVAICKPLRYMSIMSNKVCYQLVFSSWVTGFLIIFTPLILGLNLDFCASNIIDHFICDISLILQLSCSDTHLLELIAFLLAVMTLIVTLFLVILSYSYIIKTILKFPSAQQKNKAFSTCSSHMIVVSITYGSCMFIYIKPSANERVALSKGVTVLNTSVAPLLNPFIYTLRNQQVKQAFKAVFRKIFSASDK
Outline: as §1

O7E24 = tested on: T5, O7E24
T5 sequence (whole entry): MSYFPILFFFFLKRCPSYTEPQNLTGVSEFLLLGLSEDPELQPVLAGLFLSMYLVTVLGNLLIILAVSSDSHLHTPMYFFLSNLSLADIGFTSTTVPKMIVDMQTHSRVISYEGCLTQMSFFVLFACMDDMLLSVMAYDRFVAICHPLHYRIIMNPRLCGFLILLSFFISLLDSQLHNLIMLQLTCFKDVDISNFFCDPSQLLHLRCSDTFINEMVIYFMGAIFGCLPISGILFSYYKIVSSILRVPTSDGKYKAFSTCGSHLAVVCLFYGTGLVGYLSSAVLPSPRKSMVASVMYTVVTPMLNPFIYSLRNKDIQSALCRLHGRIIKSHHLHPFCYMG
Outline: as §1

OR10A3 (Homo sapiens) = biological target: T6, OR10A3 (Homo sapiens) (UniProt P58181)
T6 sequence (whole entry): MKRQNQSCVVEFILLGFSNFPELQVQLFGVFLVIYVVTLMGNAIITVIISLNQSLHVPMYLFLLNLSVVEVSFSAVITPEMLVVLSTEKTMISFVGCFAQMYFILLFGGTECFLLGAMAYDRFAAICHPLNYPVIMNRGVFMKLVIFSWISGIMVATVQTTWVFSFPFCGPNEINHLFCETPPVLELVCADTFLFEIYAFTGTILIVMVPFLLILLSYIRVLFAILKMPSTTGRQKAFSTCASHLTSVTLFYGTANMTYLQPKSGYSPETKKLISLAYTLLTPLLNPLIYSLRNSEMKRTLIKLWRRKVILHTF
Outline: as §1

OR10A5 (Homo sapiens) = biological target: T7, OR10A5 (Homo sapiens) (UniProt Q9H207)
T7 sequence (whole entry): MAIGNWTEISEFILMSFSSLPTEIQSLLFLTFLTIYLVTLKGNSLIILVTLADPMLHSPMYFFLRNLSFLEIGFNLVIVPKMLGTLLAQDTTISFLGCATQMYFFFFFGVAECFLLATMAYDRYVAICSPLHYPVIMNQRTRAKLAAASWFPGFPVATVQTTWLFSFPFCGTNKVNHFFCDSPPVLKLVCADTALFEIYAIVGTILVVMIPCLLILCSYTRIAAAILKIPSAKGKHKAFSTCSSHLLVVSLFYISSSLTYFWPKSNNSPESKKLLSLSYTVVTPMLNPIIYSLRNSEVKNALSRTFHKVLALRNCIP
Outline: as §1

OR10A6 (Homo sapiens) = biological target: T8, OR10A6 (Homo sapiens) (UniProt Q8NH74)
T8 sequence (whole entry): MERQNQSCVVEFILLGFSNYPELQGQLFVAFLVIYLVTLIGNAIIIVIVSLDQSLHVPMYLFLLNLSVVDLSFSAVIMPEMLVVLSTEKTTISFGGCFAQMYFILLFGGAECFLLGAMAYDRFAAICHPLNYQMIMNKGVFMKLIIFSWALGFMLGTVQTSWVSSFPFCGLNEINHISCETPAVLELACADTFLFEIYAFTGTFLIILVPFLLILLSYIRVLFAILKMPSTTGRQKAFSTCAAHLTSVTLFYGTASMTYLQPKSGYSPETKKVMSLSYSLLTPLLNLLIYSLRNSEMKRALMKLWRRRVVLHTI
Outline: as §1

OR10A7 (Homo sapiens) = biological target: T9, OR10A7 (Homo sapiens) (UniProt Q8NGE5)
T9 sequence (whole entry): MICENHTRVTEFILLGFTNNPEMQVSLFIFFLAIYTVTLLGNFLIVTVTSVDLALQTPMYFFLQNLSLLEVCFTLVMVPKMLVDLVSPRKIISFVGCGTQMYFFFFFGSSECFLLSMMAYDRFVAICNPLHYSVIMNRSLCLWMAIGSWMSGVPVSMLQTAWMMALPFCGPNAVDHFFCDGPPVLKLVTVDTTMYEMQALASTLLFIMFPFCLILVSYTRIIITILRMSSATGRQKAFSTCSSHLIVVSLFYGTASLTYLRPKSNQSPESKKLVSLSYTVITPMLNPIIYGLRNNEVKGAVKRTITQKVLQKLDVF
Outline: as §1

OR10AG1 (Homo sapiens) = biological target: T10, OR10AG1 (Homo sapiens) (UniProt Q8NH19)
T10 sequence (whole entry): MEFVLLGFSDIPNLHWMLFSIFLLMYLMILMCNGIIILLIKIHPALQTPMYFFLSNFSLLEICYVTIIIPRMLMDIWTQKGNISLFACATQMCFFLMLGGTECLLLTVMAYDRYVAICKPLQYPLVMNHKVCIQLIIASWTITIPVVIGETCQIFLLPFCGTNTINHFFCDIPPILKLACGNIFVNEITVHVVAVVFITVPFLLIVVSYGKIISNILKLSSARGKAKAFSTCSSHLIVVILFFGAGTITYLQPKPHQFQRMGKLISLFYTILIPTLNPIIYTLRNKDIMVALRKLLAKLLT
Outline: as §1

Measured: odorant receptor agonist call;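 also: active if original authors judged signal statistically different from baseline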

CCC(C)=O
inactive: O5AU1 | O5H14 | O6C68 | O6C70 | O7E24 | OR10A3 (Homo sapiens) | OR10A5 (Homo sapiens) | OR10A6 (Homo sapiens) | OR10A7 (Homo sapiens) | OR10AG1 (Homo sapiens)
